Experimental data: PubChem BioAssay AID1508597 (Cure First, 2020)
Assay: 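Survival screen with siRNA in ovarian cancer cells derived from patients, with or without rucaparib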 (primary screen). Cells: human ovarian carcinoma lines grown from tumours: OCI-P5x (papillary serous) and OCI-C5x (clear cell). Reagents: siRNA pool against human genes, 1.25 pmol siRNA per well. Time to read-out: 72 h or 96 h, depending on the cell culture. Conditions: rucaparib 20 µM (about IC30) or vehicle, present until read-out. Measured: 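Luminescent ATP-based viability assay read 72 or 96 h after transfection, depending on culture, given as normalised percent viability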. Direction: viability, normalised: higher = more viable cells remaining. Active means: 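a well counts as a hit if its normalised viability is under 80 percent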. Meaning of the calls: active = viability under 80%; inactive = viability 80% or more.
This is a random part of about 2,100 reagents. 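Calls flag viability under 80% in either arm, not effects specific to rucaparib; the reference for percent is not stated.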 The record does not give: the 100% reference.

gene symbol	rucaparib or vehicle	cell line	technical replicate	viability, normalised (%)	activity call
DHX16	Rucaparib	OCI-C5x (clear cell)	1	65.6	active
DHX16	Rucaparib	OCI-C5x (clear cell)	2	68.5	active
DHX16	Rucaparib	OCI-C5x (clear cell)	3	54.4	active
DHX16	Rucaparib	OCI-P5x (serous)	1	55.3	active
DHX16	Rucaparib	OCI-P5x (serous)	2	42.7	active
DHX16	Rucaparib	OCI-P5x (serous)	3	61.1	active
DHX16	Vehicle	OCI-C5x (clear cell)	1	47.8	active
DHX16	Vehicle	OCI-C5x (clear cell)	2	52.2	active
DHX16	Vehicle	OCI-C5x (clear cell)	3	47.4	active
DHX16	Vehicle	OCI-P5x (serous)	1	56.6	active
DHX16	Vehicle	OCI-P5x (serous)	2	67.3	active
DHX16	Vehicle	OCI-P5x (serous)	3	61.6	active
AGO4	Rucaparib	OCI-C5x (clear cell)	1	37.3	active
AGO4	Rucaparib	OCI-C5x (clear cell)	2	43	active
AGO4	Rucaparib	OCI-C5x (clear cell)	3	36.7	active
AGO4	Rucaparib	OCI-P5x (serous)	1	63.1	active
AGO4	Rucaparib	OCI-P5x (serous)	2	45.5	active
AGO4	Rucaparib	OCI-P5x (serous)	3	44.8	active
AGO4	Vehicle	OCI-C5x (clear cell)	1	28	active
AGO4	Vehicle	OCI-C5x (clear cell)	2	34	active
AGO4	Vehicle	OCI-C5x (clear cell)	3	22.9	active
AGO4	Vehicle	OCI-P5x (serous)	1	60.6	active
AGO4	Vehicle	OCI-P5x (serous)	2	59.8	active
AGO4	Vehicle	OCI-P5x (serous)	3	46.6	active
MINK1	Rucaparib	OCI-C5x (clear cell)	1	40.4	active
MINK1	Rucaparib	OCI-C5x (clear cell)	2	33.2	active
MINK1	Rucaparib	OCI-C5x (clear cell)	3	35.2	active
MINK1	Rucaparib	OCI-P5x (serous)	1	72.9	active
MINK1	Rucaparib	OCI-P5x (serous)	2	77.7	active
MINK1	Rucaparib	OCI-P5x (serous)	3	61.5	active
MINK1	Vehicle	OCI-C5x (clear cell)	1	42.4	active
MINK1	Vehicle	OCI-C5x (clear cell)	2	49.5	active
MINK1	Vehicle	OCI-C5x (clear cell)	3	35.2	active
MINK1	Vehicle	OCI-P5x (serous)	1	71.6	active
MINK1	Vehicle	OCI-P5x (serous)	2	62.7	active
MINK1	Vehicle	OCI-P5x (serous)	3	55.6	active

Not a retest: an excerpt of the list.
gene symbol	rucaparib or vehicle	cell line	technical replicate	viability, normalised (%)	activity call
DHX16	Vehicle	OCI-C5x (clear cell)	3	47.4	active
DHX16	Vehicle	OCI-P5x (serous)	1	56.6	active
DHX16	Vehicle	OCI-P5x (serous)	2	67.3	active
DHX16	Vehicle	OCI-P5x (serous)	3	61.6	active
AGO4	Rucaparib	OCI-C5x (clear cell)	1	37.3	active
AGO4	Rucaparib	OCI-C5x (clear cell)	2	43	active
AGO4	Rucaparib	OCI-C5x (clear cell)	3	36.7	active
AGO4	Rucaparib	OCI-P5x (serous)	1	63.1	active

More results follow.
gene symbol	rucaparib or vehicle	cell line	technical replicate	viability, normalised (%)	activity call
TCF20	Rucaparib	OCI-C5x (clear cell)	1	53.4	active
TCF20	Rucaparib	OCI-C5x (clear cell)	2	53.6	active
TCF20	Rucaparib	OCI-C5x (clear cell)	3	35	active
TCF20	Rucaparib	OCI-P5x (serous)	1	41.1	active
TCF20	Rucaparib	OCI-P5x (serous)	2	52.4	active
TCF20	Rucaparib	OCI-P5x (serous)	3	33.9	active
TCF20	Vehicle	OCI-C5x (clear cell)	1	19.1	active
TCF20	Vehicle	OCI-C5x (clear cell)	2	54.5	active
TCF20	Vehicle	OCI-C5x (clear cell)	3	49	active
TCF20	Vehicle	OCI-P5x (serous)	1	37.9	active
TCF20	Vehicle	OCI-P5x (serous)	2	53.8	active
TCF20	Vehicle	OCI-P5x (serous)	3	59.3	active
PTK2B	Rucaparib	OCI-C5x (clear cell)	1	69.4	active
PTK2B	Rucaparib	OCI-C5x (clear cell)	2	49	active
PTK2B	Rucaparib	OCI-C5x (clear cell)	3	39.7	active
PTK2B	Rucaparib	OCI-P5x (serous)	1	108	inactive
PTK2B	Rucaparib	OCI-P5x (serous)	2	83.8	inactive
PTK2B	Rucaparib	OCI-P5x (serous)	3	70.6	active
PTK2B	Vehicle	OCI-C5x (clear cell)	1	46.3	active
PTK2B	Vehicle	OCI-C5x (clear cell)	2	67.2	active
PTK2B	Vehicle	OCI-C5x (clear cell)	3	60.6	active
PTK2B	Vehicle	OCI-P5x (serous)	1	79.2	active
PTK2B	Vehicle	OCI-P5x (serous)	2	71.9	active
PTK2B	Vehicle	OCI-P5x (serous)	3	64.4	active
